± gives the standard deviation of the averaged measurements. The list shows a part of the results.
Compound: Nc1nc2c(ncn2[C@@H]2O[C@H](COP(=O)(O)OP(=O)(O)OP(=O)(O)O)[C@@H](O)[C@H]2O)c(=O)[nH]1 [guanosine triphosphate]
Test: NP40-soluble protein abundance relative to vehicle (solubility fold change) (ratio); higher = more soluble protein in presence of GTP
Method in brief: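 Each value is a fold change relative to the detergent-processed vehicle, calculated per replicate from vsn-normalised intensities. Jurkat crude lysate received eight concentrations (0.1 to 10 mM) for 10 min at room temperature and 3 min at 37 °C, then was solubilised in 0.8% NP40 with benzonase (60 min, 4 °C). The ultracentrifuged supernatant was TMT-labelled and run by LC-MS/MS in three independent experiments.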

The chains behind the UniProt entries cited, without tags or fusion partners. Where a name states a change or a piece, a line headed by the entry shows the natural chain unless it says otherwise.
UniProt Q8TBM8: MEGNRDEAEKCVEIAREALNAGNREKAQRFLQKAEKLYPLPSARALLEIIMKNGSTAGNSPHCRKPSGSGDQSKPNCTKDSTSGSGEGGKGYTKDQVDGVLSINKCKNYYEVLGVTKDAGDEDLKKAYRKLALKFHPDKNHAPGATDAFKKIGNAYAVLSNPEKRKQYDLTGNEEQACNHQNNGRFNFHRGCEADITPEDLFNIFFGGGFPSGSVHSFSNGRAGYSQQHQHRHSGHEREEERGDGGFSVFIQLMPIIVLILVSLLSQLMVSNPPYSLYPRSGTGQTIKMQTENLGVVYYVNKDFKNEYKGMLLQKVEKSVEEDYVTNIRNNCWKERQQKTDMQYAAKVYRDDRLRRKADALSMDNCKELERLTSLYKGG
UniProt Q8N766: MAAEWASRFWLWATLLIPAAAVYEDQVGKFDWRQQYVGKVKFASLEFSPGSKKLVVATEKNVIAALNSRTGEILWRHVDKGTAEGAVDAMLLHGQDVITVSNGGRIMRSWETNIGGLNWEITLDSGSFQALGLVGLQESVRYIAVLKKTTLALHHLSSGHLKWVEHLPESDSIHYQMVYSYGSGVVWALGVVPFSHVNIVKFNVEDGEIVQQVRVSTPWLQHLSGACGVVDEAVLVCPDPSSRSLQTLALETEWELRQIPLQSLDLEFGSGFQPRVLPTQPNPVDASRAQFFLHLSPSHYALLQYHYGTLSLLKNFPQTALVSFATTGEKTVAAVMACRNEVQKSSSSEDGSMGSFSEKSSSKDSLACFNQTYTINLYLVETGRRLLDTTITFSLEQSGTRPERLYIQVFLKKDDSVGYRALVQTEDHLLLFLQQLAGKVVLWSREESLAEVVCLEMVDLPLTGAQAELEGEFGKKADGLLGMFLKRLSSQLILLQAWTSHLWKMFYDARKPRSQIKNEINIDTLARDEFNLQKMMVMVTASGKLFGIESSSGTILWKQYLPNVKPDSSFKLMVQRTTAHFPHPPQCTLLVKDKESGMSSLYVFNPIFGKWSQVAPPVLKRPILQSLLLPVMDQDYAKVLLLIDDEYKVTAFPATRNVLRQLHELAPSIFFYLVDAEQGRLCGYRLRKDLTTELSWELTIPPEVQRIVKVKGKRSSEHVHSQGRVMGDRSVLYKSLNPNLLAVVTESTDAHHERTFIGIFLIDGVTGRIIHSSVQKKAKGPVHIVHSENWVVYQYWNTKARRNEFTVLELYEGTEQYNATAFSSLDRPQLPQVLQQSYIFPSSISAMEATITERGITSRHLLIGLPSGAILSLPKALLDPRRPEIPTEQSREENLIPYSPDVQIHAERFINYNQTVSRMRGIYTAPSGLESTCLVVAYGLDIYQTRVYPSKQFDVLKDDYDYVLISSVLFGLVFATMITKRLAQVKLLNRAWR
UniProt Q8TEA8: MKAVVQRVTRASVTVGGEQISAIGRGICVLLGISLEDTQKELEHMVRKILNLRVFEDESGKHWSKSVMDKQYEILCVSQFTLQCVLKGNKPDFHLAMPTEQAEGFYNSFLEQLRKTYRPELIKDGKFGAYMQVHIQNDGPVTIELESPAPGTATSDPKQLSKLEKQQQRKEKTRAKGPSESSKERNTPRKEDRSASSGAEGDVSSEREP
UniProt Q8IXU6: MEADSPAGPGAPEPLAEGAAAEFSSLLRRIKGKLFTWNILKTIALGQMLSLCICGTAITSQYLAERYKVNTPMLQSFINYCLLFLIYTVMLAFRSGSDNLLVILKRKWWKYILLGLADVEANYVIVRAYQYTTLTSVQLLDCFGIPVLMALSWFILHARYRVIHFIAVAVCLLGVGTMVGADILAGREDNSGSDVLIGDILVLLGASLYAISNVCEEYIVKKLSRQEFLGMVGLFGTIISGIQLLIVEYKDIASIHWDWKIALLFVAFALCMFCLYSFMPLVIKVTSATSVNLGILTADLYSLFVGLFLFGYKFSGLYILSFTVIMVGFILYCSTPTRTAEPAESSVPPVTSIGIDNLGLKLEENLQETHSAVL
UniProt Q8N5G2: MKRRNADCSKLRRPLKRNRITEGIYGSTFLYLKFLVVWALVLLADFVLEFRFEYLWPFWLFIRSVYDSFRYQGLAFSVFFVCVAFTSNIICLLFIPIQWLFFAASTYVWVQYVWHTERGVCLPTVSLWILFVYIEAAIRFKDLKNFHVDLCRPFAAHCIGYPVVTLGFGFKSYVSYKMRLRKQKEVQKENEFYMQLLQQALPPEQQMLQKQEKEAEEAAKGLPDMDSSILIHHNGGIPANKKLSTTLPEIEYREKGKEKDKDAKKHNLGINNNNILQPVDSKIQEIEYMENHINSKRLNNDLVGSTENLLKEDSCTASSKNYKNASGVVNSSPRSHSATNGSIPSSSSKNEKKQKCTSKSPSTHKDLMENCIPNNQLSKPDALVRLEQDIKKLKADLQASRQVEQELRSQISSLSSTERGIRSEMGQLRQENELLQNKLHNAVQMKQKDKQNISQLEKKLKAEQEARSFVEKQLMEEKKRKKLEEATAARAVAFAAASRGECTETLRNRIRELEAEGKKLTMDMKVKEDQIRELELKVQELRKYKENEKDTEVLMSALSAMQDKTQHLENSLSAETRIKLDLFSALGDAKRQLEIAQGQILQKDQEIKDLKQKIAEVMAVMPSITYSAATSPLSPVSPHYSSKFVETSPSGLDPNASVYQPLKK
UniProt Q8NEC7: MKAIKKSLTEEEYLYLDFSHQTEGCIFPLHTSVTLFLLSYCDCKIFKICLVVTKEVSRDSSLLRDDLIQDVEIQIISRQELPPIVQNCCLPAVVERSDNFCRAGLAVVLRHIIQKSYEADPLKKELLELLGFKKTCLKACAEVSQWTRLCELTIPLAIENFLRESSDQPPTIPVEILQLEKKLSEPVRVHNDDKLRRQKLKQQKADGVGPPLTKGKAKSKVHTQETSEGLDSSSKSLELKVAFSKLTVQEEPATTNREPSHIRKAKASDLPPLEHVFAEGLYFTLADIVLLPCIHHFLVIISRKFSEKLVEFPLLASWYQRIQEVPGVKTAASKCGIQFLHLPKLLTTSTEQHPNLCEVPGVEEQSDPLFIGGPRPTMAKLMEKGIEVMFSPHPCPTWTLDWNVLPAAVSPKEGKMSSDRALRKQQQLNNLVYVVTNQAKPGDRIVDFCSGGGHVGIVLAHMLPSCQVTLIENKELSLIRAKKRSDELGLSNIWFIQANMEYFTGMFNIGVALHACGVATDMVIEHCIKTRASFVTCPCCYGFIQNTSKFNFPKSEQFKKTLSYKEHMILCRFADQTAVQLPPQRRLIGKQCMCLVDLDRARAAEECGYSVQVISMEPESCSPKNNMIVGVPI
UniProt Q8WU39: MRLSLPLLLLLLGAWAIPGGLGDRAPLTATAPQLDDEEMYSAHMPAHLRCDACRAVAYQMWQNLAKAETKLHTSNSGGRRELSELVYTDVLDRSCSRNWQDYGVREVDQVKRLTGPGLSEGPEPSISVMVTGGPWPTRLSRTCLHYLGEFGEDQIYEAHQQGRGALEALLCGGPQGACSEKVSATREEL
UniProt Q8IYS1: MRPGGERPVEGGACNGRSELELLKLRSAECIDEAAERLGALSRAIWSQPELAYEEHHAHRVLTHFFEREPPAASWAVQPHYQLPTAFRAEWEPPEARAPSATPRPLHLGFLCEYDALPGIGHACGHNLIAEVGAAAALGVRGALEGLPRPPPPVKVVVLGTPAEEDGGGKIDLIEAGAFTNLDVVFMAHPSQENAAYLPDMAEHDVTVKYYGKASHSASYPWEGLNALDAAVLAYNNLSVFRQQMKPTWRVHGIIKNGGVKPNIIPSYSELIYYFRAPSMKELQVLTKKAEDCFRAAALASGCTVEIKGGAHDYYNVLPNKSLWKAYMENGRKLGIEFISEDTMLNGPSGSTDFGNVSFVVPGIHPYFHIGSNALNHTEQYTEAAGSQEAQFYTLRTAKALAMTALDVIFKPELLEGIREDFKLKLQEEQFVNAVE
UniProt Q8TEA1: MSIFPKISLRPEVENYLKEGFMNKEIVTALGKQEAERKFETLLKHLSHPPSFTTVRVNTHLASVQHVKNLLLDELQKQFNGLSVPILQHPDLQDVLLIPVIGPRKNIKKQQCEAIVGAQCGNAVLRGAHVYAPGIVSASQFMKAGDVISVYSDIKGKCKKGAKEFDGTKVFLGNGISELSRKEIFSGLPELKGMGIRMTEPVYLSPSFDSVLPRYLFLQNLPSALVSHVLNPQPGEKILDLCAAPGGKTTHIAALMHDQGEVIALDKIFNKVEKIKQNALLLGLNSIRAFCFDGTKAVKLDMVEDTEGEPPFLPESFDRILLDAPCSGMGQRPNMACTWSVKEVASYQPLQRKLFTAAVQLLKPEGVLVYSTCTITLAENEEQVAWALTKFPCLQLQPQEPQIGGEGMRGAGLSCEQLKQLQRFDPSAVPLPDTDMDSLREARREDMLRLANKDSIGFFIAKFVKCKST
UniProt Q8IW35: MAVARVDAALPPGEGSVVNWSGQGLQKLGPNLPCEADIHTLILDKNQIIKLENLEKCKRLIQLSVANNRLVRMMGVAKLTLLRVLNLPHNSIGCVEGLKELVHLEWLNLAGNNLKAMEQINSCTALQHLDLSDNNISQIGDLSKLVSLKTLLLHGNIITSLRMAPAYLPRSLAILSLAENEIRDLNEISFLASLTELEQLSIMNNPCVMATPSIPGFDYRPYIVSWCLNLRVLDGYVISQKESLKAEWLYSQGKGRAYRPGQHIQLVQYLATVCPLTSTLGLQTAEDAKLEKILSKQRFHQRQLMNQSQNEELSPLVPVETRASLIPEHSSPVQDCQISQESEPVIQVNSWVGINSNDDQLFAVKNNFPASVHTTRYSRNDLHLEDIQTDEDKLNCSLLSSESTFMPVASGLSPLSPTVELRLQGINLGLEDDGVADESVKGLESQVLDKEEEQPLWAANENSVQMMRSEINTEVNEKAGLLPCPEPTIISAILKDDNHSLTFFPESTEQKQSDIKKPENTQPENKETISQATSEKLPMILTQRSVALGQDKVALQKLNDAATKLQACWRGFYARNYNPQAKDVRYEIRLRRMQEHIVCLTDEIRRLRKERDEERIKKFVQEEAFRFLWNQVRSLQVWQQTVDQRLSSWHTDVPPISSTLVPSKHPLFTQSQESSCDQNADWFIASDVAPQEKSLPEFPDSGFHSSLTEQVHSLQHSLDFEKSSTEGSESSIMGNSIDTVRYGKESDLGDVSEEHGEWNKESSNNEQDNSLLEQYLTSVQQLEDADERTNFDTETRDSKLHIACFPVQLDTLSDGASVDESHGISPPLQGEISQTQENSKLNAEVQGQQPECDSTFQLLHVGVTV
UniProt Q8TEB1, whole entry: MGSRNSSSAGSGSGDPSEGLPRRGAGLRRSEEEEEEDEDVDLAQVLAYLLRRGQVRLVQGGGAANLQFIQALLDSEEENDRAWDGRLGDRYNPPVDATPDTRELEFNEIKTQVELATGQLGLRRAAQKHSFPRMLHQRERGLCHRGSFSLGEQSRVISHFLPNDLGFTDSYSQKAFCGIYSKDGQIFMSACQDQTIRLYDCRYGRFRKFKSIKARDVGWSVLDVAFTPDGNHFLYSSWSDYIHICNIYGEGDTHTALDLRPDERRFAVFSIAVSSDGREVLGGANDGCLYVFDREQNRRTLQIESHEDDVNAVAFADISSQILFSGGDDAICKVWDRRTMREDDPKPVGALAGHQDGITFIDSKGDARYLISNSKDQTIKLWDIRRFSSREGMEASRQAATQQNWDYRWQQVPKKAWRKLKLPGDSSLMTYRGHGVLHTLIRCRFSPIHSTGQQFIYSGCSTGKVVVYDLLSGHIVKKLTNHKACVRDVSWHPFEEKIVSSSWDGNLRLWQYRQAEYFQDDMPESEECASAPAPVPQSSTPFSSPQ
UniProt Q8N1K5: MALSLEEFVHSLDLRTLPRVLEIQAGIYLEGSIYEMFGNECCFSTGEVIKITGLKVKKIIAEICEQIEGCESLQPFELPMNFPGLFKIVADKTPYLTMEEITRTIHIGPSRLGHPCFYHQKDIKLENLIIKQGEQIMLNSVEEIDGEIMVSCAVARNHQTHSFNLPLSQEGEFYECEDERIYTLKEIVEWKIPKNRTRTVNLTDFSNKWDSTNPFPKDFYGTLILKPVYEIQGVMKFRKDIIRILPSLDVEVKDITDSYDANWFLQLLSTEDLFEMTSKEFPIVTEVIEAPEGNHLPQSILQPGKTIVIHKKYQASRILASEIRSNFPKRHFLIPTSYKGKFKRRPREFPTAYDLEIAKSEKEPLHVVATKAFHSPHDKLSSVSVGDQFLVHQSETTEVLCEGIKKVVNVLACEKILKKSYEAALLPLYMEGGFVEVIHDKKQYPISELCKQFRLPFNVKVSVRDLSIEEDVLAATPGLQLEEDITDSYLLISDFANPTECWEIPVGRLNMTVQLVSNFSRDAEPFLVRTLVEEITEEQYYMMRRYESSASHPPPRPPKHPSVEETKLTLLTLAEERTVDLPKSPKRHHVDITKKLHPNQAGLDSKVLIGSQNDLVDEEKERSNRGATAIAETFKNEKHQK

Target	NP40-soluble protein abundance (concentration: 0.1mM)	NP40-soluble protein abundance (concentration: 0.5mM)	NP40-soluble protein abundance (concentration: 1mM)	NP40-soluble protein abundance (concentration: 2mM)	NP40-soluble protein abundance (concentration: 4mM)	NP40-soluble protein abundance (concentration: 6mM)	NP40-soluble protein abundance (concentration: 8mM)	NP40-soluble protein abundance (concentration: 10mM)
NFATC2IP (UniProt Q8NCF5)	0.994 ± 0.075	0.903 ± 0.096	0.981 ± 0.13	0.962 ± 0.14	0.985 ± 0.12	0.917 ± 0.11	0.959 ± 0.11	0.979 ± 0.12
DNAJB14 (UniProt Q8TBM8)	0.99 ± 0.037	0.925 ± 0.04	1 ± 0.052	0.988 ± 0.058	1.03 ± 0.063	0.972 ± 0.063	1.046 ± 0.0057	1.03 ± 0.041
UniProt Q8N766 and related entries	1.01 ± 0.055	1.03 ± 0.1	0.938 ± 0.046	0.964 ± 0.12	0.951 ± 0.098	0.926 ± 0.093	0.901 ± 0.015	0.897 ± 0.063
UniProt Q8IX18 and related entries	1.12 ± 0.049	1.16 ± 0.043	1.08 ± 0.058	1.13 ± 0.06	1.07 ± 0.14	1.05 ± 0.11	1.05 ± 0.059	1.02 ± 0.12
LRRC47 (UniProt Q8N1G4)	0.981 ± 0.028	0.962 ± 0.046	0.976 ± 0.036	0.962 ± 0.051	0.98 ± 0.034	0.985 ± 0.045	1.01 ± 0.04	0.996 ± 0.069
UniProt Q8IUI8 and related entries	1.05 ± 0.019	0.9965 ± 0.0096	0.962 ± 0.029	0.97 ± 0.044	0.961 ± 0.067	0.901 ± 0.028	0.954 ± 0.077	0.957 ± 0.098
UniProt Q8TEA8 and related entries	0.932 ± 0.048	0.949 ± 0.066	0.888 ± 0.015	0.904 ± 0.047	0.84 ± 0.022	0.893 ± 0.063	0.8855 ± 0.0087	0.875 ± 0.045
UniProt Q8IXU6 and related entries	1.08 ± 0.16	1.11 ± 0.16	0.996 ± 0.17	1.01 ± 0.11	1.06 ± 0.045	1.05 ± 0.064	0.961 ± 0.17	0.979 ± 0.12
SMAP2 (UniProt Q8WU79)	0.953 ± 0.041	0.93 ± 0.059	0.952 ± 0.065	0.88 ± 0.086	0.868 ± 0.069	0.875 ± 0.071	0.905 ± 0.072	0.879 ± 0.067
UniProt Q8N5G2	1.07 ± 0.1	1.03 ± 0.089	1.12 ± 0.15	1.3 ± 0.057	1.26 ± 0.24	1.16 ± 0.17	1.24 ± 0.21	1.43 ± 0.25
UniProt Q8NEC7 and related entries	1.07 ± 0.1	0.978 ± 0.026	0.97 ± 0.091	0.917 ± 0.09	1.06 ± 0.099	0.937 ± 0.2	1.04 ± 0.16	1.03 ± 0.016
MZB1 (UniProt Q8WU39)	0.874 ± 0.068	0.886 ± 0.087	0.937 ± 0.064	0.903 ± 0.078	0.891 ± 0.077	0.892 ± 0.097	0.866 ± 0.13	0.948 ± 0.065
PM20D2 (UniProt Q8IYS1)	0.977 ± 0.071	0.969 ± 0.062	0.91 ± 0.08	0.904 ± 0.052	0.908 ± 0.066	0.89 ± 0.053	0.866 ± 0.085	0.843 ± 0.095
PLA2G15 (UniProt Q8NCC3)	0.969 ± 0.083	0.968 ± 0.077	0.965 ± 0.033	0.948 ± 0.11	0.959 ± 0.066	0.925 ± 0.08	0.948 ± 0.044	0.959 ± 0.09
UniProt Q86XP3 and related entries	1.01 ± 0.015	1 ± 0.014	1 ± 0.029	1.004 ± 0.008	1.05 ± 0.022	1.04 ± 0.013	1.06 ± 0.03	1.05 ± 0.024
NSUN6 (UniProt Q8TEA1)	1 ± 0.039	1.01 ± 0.025	0.922 ± 0.03	0.931 ± 0.033	0.906 ± 0.052	0.911 ± 0.035	0.901 ± 0.069	0.893 ± 0.071
SHCBP1 (UniProt Q8NEM2)	1.02 ± 0.054	1.04 ± 0.051	1.02 ± 0.05	1 ± 0.075	1.03 ± 0.065	0.99 ± 0.071	0.976 ± 0.059	0.947 ± 0.046
UniProt Q86YP4 and related entries	0.982 ± 0.041	1.01 ± 0.043	1.09 ± 0.023	1.11 ± 0.064	1.15 ± 0.1	1.16 ± 0.075	1.23 ± 0.13	1.24 ± 0.17
UniProt Q8TF01	1.15 ± 0.015	1.132 ± 0.0065	1.23 ± 0.031	1.11 ± 0.03	1.18 ± 0.018	1.09 ± 0.12	1.17 ± 0.062	1.07 ± 0.084
UniProt Q8IW35 and related entries	1.039 ± 0.0082	1.06 ± 0.032	1.09 ± 0.013	1.07 ± 0.059	1.04 ± 0.054	1.06 ± 0.05	1.05 ± 0.077	1.03 ± 0.058
UBR1 (UniProt Q8IWV7)	1.007 ± 0.0044	0.971 ± 0.039	0.942 ± 0.045	0.922 ± 0.042	0.921 ± 0.11	1 ± 0.025	0.8726 ± 0.0079	0.877 ± 0.062
ERI1 (UniProt Q8IV48)	0.959 ± 0.1	0.989 ± 0.11	0.963 ± 0.068	1.03 ± 0.031	1.06 ± 0.054	1.12 ± 0.071	1.08 ± 0.093	1.16 ± 0.064
UniProt Q8N3U4-2|Q8N3U4 and related entries	1.09 ± 0.031	1.11 ± 0.065	0.978 ± 0.067	1.03 ± 0.13	1.02 ± 0.075	0.998 ± 0.11	0.985 ± 0.036	0.913 ± 0.071
PTGR2 (UniProt Q8N8N7)	0.991 ± 0.06	1.03 ± 0.091	0.974 ± 0.053	0.962 ± 0.067	0.918 ± 0.077	0.911 ± 0.064	0.909 ± 0.079	0.898 ± 0.08
UniProt Q8TEB1 and related entries	0.991 ± 0.056	1.02 ± 0.033	0.948 ± 0.076	0.97 ± 0.046	0.938 ± 0.063	0.961 ± 0.033	0.96 ± 0.089	0.905 ± 0.038
UniProt Q8N1K5 and related entries	1.06 ± 0.017	1.07 ± 0.037	0.984 ± 0.04	0.983 ± 0.043	0.953 ± 0.043	0.936 ± 0.034	0.921 ± 0.061	0.884 ± 0.1
UniProt Q8NDI1-2|Q8NDI1-3|Q8NDI1	1.01 ± 0.048	0.967 ± 0.058	0.985 ± 0.074	0.91 ± 0.089	0.914 ± 0.095	0.9 ± 0.061	0.913 ± 0.066	0.892 ± 0.07

Single entries from above:
Value for UniProt Q8IXU6 and related entries under NP40-soluble protein abundance (concentration: 2mM): 1.01 ± 0.11
Value for UniProt Q8TEB1 and related entries under NP40-soluble protein abundance (concentration: 0.1mM): 0.991 ± 0.056

— the supplement of paper PMC6411743
